Taken from: PubChem BioAssay AID1508588 (Peter MacCallum Cancer Centre, 2020)
This is a random part of about 18,000 deposited reagents. Of all reagents, 790 (4.4%) are marked active. 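Calls rest on a combination of fold-change classes in drug and vehicle arms, not all shown here.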 A number with no mark means an inactive call. No sequences are given here.

Purpose: 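Knock-downs boosting vemurafenib effects on melanoma cell growth or lactate release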 (primary screen)
System: human WM266.4 melanoma cells (BRAF V600 mutant)
Reagent: siRNA pool against human genes, 40 nM
Timing: 96 h from transfection to read-out
Conditions: vemurafenib 300 nM (about IC25), added 48 h after transfection, for 48 h; comparison arm got DMSO vehicle only
Measured: 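Cell gain (DAPI nuclei at end minus before drug, mean of two replicates) and medium lactate by absorbance per cell, both as ratio to non-targeting siRNA, also grouped into fold-change classes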
Direction: cell gain with vemurafenib: higher = more cell gain than with non-targeting siRNA; lactate per cell with vemurafenib: higher = more lactate made per cell
Active means: 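a knock-down counts as enhancing when its fold-change classes with vehicle and with vemurafenib, taken together, show a stronger drug effect on cell gain or lactate per cell; exact class pairs not stated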
Calls: active = enhances vemurafenib effect; inactive = no enhancement seen

Gene	cell gain with vemurafenib	lactate per cell with vemurafenib
UPF3A (GeneID 65110)	0.56 (active)	0.65
DOCK4 (GeneID 9732)	0.3	2.21
SLC39A2 (GeneID 29986)	0.24	-0.08
METTL8 (GeneID 79828)	0.47	0.6
SRC (GeneID 6714)	0.19	0.56
PCDH15 (GeneID 65217)	0.35	0.98
DEFB4A (GeneID 1673)	0.75	0.44
FNDC3B (GeneID 64778)	0.46	1.54
OR5T1 (GeneID 390155)	0.16	1.36
HAPSTR1 (GeneID 29035)	0.98	0.42
AQP12A (GeneID 375318)	0.18 (active)	0.62
PNPLA5 (GeneID 150379)	0.72	0.5
SREBF1 (GeneID 6720)	0.74	0.62
NPBWR1 (GeneID 2831)	0.73	1.15
CYP7A1 (GeneID 1581)	0.99	0.82
PLA2G12B (GeneID 84647)	0.35	0.81
TRAPPC11 (GeneID 60684)	0.75	0.78
CTNND1 (GeneID 1500)	0.76	1.04
PDGFC (GeneID 56034)	0.95	0.74
CCAR2 (GeneID 57805)	0.21	1.59
MZT2A (GeneID 653784)	0.58	1.19
GUCA1A (GeneID 2978)	0.74	1.12
RPS17P16 (GeneID 402057)	0.79	0.68
LHX1 (GeneID 3975)	0.79	0.93
MPV17L2 (GeneID 84769)	0.84	1.12
CST9L (GeneID 128821)	0.21	1.23
PCNA (GeneID 5111)	0.26	1.56
GTPBP6 (GeneID 8225)	0.3	0.92
C19orf48P (GeneID 84798)	0.48	1.29
ZFYVE21 (GeneID 79038)	0.6	0.51
PNMA6A (GeneID 84968)	0.9	0.57
USP1 (GeneID 7398)	0.27	0.98
PNP (GeneID 4860)	0.71	0.74

The list goes on; the last 5 above are carried over.
Gene	cell gain with vemurafenib	lactate per cell with vemurafenib
C19orf48P (GeneID 84798)	0.48	1.29
ZFYVE21 (GeneID 79038)	0.6	0.51
PNMA6A (GeneID 84968)	0.9	0.57
USP1 (GeneID 7398)	0.27	0.98
PNP (GeneID 4860)	0.71	0.74
ZNF765 (GeneID 91661)	1.37	0.74
GET1 (GeneID 7485)	0.59	0.62
LRTM1 (GeneID 57408)	1.06	0.74
DNAAF4 (GeneID 161582)	1.09	0.53
MAP2K1 (GeneID 5604)	0.88	0.68
CD79A (GeneID 973)	0.43	1.19
ZNF768 (GeneID 79724)	0.5	1.04
TRIM51EP (GeneID 399940)	0.76	0.67
KCNK1 (GeneID 3775)	0.39	0.93
LTB (GeneID 4050)	0.75	1.14
CDK15 (GeneID 65061)	0.89	0.81
BPIFB4 (GeneID 149954)	0.63	1.31
POLR1B (GeneID 84172)	0.3	0.82
SLC43A1 (GeneID 8501)	1.23	0.28
TDP2 (GeneID 51567)	1.2	0.82
GCG (GeneID 2641)	0.69	1.48
ZNF446 (GeneID 55663)	0.56	1.22
XYLT1 (GeneID 64131)	0.48	0.68
LHX2 (GeneID 9355)	0.89	1.19
ACP1 (GeneID 52)	0.24	1.02
WDR41 (GeneID 55255)	0.77	0.42
NDFIP2 (GeneID 54602)	0.72	0.8
TAOK1 (GeneID 57551)	0.65	0.71
NF2 (GeneID 4771)	0.44	1.34
